{"sequences": {"note": "By UniProt entry, the sequences of proteins in these tests, tags left out. Where a name states a change or a piece, a line headed by the entry shows the natural chain unless it says otherwise.", "UniProt Q09472": "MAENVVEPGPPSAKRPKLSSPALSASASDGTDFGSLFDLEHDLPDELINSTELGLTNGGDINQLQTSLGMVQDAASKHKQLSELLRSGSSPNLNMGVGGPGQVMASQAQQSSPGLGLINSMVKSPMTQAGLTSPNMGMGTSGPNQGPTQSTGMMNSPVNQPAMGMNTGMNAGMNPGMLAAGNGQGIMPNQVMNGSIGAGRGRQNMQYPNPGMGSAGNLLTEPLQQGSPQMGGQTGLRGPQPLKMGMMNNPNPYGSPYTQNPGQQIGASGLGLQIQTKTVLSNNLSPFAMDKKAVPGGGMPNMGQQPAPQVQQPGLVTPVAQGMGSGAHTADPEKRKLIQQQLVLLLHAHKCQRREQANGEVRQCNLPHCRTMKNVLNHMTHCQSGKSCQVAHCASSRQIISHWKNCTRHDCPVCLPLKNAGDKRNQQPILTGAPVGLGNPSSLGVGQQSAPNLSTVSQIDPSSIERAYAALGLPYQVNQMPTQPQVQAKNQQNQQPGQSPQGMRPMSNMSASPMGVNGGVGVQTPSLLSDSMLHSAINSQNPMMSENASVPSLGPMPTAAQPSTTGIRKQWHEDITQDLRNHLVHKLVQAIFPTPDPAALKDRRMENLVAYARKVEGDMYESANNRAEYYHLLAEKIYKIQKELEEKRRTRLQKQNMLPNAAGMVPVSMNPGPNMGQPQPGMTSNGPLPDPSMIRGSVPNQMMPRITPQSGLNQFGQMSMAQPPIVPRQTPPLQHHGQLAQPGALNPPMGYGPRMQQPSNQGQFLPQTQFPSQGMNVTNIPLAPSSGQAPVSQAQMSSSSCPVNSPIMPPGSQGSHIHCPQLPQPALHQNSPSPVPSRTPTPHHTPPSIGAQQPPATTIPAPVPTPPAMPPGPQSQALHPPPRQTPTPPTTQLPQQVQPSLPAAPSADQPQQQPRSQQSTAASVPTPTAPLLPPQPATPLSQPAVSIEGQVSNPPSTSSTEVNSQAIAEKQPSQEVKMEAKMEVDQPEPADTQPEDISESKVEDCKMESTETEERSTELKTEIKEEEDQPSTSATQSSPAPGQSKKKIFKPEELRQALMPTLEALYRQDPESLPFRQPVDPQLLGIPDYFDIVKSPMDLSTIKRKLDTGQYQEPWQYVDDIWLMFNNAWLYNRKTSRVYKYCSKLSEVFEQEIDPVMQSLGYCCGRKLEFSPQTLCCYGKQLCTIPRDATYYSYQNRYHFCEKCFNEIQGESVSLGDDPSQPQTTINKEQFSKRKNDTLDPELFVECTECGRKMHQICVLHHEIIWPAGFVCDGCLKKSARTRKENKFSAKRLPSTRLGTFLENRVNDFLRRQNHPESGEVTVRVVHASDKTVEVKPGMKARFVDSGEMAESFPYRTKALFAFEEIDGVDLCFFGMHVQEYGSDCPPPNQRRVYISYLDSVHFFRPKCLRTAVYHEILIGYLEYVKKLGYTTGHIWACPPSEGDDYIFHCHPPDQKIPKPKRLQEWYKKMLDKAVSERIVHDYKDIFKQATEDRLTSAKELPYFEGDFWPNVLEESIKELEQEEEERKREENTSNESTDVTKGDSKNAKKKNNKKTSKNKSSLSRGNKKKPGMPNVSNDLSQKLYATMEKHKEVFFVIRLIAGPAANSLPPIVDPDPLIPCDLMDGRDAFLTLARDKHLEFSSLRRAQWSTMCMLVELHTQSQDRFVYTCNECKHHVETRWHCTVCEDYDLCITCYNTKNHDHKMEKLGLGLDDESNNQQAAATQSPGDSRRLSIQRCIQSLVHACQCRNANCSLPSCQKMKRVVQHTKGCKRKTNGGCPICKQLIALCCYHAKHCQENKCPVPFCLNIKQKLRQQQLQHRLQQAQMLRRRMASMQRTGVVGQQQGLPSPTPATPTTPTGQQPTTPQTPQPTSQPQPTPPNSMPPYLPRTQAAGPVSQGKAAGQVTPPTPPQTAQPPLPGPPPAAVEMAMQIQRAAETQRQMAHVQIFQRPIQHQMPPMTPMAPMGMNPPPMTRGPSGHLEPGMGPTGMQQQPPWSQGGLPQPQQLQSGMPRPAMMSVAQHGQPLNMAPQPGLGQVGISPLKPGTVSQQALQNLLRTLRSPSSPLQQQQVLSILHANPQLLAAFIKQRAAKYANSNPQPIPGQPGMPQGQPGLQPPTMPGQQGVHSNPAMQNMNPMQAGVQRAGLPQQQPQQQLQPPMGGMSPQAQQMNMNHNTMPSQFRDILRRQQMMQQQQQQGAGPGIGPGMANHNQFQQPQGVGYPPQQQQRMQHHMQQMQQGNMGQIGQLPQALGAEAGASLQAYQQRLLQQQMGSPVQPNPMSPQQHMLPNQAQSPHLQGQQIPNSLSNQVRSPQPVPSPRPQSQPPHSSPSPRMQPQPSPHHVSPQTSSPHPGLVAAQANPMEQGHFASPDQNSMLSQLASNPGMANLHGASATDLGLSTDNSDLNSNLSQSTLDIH", "UniProt P10242": "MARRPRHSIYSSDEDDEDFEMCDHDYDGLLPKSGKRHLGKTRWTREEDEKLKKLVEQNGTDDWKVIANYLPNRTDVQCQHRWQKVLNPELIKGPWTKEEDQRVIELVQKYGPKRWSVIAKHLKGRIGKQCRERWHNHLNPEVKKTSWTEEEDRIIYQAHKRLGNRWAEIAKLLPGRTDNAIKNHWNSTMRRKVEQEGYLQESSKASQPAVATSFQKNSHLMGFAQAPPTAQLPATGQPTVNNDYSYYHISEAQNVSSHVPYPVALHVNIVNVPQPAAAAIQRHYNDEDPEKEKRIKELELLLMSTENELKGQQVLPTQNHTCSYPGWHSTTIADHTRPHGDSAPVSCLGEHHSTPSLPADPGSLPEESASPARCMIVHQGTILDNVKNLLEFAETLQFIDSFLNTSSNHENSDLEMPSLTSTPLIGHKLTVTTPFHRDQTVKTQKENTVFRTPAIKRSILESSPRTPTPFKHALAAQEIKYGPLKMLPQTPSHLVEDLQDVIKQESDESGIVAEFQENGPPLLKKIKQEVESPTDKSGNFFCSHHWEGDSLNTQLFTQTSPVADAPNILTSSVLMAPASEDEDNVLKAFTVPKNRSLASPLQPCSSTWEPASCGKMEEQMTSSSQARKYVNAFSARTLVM"}, "source": "paper PMC6022509", "target": "p300-Myc (UniProt Q09472)", "assay": "co-IP; COS-1 cells transfected with HA-tagged c-Myb or c-Myb D152V and p300-Myc, lysed 24 h after transfection; immunoprecipitation with anti-p300 and Protein A Dynabeads, 2 h at 4 °C; western blot with anti-HA", "note": "Results are given in words; binding and its absence hold for the method and conditions named. Binding seen in cells or lysates may run through a third protein. Some entries that bind do so weakly or less than the wild type."}
{"substance": "full-length HA-tagged c-Myb (from UniProt P10242 1-640)", "values": [{"measurement": "binding", "value": "binds"}]}
{"substance": "full-length HA-tagged c-Myb D152V (from UniProt P10242 1-640)", "values": [{"measurement": "binding", "value": "binds"}]}
